The other results are listed elsewhere or left out.
Compound: c1cn2cc(-c3ccc4cn[nH]c4c3)nc(Nc3ccc(N4CCOCC4)cc3)c2n1 [entospletinib]
Experiment: log2 fold change, soluble protein after heating vs DMSO (PISA); higher = thermal stabilisation; K562 cells, 10 uM, 30 min; active = over 0.2 and 3.5 SD of the protein, either way, in both replicates (recomputed)
Method in brief: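 K562 cells at 2×10^6 cells/mL were treated with 10 μM compound for 30 min. Aliquots were heated for 3 min across 48°C-58°C, pooled, and extracted in PBS with 0.5% NP-40 at 4°C; soluble protein was the supernatant after 21,000xg for 90 min. Soluble protein was quantified by TMTpro 16plex LC-MS/MS with channel sums equalised, and reported as log2 fold change in thermal stability against DMSO controls, with values from duplicates.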

By UniProt entry, the sequences of proteins in these tests, tags left out. Where a name states a change or a piece, a line headed by the entry shows the natural chain unless it says otherwise.
UniProt Q9HC35: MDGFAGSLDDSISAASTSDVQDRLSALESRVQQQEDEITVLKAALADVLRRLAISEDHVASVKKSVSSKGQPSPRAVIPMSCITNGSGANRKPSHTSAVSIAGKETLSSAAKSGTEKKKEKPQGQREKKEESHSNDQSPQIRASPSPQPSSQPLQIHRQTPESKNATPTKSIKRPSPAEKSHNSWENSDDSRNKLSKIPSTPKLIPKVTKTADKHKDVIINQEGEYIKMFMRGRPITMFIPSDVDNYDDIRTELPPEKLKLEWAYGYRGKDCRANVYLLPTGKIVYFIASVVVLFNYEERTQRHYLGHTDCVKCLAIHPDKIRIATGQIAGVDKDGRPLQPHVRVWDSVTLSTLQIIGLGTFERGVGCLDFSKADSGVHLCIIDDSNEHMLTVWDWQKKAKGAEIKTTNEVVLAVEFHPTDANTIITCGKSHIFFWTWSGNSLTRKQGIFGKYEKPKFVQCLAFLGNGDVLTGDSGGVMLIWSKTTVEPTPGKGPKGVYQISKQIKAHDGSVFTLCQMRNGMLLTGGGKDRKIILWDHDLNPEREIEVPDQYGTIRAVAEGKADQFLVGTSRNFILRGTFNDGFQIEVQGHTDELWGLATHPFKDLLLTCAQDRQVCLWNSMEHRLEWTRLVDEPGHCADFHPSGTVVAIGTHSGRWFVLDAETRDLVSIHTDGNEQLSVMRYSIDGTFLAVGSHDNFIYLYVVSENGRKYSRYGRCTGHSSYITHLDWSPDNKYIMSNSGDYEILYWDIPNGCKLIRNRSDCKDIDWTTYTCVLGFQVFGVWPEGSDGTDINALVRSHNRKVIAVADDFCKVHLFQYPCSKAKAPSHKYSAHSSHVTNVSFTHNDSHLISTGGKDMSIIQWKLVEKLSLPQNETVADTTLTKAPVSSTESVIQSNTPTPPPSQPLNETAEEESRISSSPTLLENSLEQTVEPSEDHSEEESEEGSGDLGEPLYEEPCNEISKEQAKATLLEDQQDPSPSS
UniProt Q32P44: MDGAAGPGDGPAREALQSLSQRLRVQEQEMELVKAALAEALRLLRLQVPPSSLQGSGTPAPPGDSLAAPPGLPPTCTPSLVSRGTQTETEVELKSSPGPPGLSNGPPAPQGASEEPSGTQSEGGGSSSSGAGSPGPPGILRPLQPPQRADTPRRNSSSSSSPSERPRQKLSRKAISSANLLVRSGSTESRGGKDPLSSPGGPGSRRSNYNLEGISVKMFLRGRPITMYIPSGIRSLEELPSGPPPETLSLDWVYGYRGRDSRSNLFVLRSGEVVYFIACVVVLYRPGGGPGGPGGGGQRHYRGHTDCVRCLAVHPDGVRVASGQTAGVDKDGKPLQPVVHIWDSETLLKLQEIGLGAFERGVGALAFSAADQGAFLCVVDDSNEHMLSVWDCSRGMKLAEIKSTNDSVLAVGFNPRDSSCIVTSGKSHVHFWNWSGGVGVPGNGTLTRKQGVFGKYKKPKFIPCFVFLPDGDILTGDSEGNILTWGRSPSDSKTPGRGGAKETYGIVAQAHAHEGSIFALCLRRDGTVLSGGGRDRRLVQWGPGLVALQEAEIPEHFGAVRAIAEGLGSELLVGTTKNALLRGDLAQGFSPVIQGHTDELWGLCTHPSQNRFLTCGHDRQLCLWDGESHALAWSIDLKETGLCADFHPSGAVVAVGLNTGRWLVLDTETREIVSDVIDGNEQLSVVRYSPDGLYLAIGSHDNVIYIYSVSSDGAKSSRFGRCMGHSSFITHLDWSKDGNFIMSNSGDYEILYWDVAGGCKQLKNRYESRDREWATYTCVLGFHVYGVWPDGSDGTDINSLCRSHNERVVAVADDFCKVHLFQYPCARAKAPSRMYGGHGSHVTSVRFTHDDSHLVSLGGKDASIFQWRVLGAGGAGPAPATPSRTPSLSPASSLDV
UniProt P41214: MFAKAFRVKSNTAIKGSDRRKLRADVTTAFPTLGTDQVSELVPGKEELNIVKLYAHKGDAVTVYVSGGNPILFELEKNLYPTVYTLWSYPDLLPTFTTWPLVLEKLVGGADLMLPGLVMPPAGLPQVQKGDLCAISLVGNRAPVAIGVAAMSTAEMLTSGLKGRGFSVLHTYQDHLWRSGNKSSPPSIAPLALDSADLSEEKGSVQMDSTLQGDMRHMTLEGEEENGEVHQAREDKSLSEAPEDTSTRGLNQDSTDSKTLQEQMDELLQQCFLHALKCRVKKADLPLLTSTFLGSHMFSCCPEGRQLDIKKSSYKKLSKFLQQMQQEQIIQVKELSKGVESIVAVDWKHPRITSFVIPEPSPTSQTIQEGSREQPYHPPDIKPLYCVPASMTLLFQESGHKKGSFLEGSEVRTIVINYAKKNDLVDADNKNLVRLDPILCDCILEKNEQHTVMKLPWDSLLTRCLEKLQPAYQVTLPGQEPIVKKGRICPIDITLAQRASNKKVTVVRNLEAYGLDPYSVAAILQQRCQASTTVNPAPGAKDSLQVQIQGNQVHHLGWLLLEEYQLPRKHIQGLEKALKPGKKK
UniProt Q9UHY7: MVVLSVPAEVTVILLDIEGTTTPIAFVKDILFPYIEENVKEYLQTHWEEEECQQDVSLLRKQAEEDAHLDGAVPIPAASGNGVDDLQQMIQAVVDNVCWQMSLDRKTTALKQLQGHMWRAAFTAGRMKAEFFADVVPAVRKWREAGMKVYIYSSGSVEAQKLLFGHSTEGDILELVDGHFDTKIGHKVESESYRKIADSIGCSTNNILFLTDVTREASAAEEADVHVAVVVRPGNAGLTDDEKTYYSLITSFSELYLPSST
UniProt Q5JPI9: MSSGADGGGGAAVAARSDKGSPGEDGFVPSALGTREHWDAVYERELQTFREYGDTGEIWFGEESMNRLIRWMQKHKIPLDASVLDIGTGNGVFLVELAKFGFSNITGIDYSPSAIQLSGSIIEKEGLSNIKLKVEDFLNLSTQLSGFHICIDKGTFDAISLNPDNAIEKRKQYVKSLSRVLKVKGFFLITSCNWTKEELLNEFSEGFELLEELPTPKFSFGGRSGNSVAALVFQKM
UniProt Q13347, whole entry, looked up: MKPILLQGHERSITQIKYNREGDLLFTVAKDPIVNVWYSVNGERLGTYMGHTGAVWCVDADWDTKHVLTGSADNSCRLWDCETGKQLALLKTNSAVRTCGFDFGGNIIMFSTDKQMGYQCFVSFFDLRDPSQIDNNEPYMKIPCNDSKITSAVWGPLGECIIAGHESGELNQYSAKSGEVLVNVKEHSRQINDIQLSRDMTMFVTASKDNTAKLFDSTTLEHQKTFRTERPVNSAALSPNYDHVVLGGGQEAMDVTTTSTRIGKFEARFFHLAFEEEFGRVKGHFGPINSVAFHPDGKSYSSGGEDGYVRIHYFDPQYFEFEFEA
UniProt Q9P2K8: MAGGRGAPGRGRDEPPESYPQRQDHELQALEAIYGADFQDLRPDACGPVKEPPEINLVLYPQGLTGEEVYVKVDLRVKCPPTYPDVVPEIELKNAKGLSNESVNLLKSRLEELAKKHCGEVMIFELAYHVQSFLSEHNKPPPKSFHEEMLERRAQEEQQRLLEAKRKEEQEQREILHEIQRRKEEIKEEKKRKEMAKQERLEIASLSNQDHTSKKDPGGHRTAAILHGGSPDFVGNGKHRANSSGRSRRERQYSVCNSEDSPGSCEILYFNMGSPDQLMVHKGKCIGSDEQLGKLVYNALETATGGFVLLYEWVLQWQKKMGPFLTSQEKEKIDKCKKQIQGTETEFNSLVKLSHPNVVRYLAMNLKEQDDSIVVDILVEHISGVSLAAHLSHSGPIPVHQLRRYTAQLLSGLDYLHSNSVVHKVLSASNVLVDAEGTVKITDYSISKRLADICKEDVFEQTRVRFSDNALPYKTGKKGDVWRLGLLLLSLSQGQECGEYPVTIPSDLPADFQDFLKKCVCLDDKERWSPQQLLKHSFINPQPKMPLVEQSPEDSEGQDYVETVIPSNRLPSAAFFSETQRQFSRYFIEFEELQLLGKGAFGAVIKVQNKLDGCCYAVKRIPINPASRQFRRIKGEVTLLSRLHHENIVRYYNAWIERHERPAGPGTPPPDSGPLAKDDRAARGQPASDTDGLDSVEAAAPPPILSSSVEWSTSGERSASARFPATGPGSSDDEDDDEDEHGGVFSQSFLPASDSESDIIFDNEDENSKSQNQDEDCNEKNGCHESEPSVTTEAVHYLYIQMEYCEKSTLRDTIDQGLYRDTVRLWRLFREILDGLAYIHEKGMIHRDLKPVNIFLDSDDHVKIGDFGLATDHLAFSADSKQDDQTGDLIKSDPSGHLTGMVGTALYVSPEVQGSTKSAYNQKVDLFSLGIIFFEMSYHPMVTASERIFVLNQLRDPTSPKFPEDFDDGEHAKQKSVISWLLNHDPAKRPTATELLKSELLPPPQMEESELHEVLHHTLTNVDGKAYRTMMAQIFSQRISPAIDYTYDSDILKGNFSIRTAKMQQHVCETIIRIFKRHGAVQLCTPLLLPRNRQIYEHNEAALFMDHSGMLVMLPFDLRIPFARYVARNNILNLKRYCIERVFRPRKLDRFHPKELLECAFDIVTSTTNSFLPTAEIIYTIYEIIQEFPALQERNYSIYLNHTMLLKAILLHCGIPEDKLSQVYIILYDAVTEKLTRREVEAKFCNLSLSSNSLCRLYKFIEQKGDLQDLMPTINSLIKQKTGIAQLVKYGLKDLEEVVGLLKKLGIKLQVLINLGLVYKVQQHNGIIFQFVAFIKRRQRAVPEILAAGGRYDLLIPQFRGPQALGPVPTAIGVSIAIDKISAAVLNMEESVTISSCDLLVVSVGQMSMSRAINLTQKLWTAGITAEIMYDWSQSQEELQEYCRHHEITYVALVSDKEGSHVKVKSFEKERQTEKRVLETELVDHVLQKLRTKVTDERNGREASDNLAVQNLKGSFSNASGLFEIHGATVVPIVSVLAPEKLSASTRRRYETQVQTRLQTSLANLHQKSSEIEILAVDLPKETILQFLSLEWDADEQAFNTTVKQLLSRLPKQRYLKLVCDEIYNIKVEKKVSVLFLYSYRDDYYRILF
UniProt P13929, whole entry, looked up: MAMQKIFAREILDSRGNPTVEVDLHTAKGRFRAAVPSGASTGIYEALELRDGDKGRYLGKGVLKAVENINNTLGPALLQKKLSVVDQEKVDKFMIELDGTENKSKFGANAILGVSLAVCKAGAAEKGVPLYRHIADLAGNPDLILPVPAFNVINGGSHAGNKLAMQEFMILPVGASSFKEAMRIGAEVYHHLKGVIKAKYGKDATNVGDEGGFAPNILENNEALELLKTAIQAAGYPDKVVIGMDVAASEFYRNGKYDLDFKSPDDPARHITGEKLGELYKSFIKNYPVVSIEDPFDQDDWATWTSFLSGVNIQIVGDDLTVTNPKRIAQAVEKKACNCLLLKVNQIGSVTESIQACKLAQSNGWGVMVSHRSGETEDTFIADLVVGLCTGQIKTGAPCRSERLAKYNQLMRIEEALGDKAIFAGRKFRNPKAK
UniProt Q99613, whole entry, looked up: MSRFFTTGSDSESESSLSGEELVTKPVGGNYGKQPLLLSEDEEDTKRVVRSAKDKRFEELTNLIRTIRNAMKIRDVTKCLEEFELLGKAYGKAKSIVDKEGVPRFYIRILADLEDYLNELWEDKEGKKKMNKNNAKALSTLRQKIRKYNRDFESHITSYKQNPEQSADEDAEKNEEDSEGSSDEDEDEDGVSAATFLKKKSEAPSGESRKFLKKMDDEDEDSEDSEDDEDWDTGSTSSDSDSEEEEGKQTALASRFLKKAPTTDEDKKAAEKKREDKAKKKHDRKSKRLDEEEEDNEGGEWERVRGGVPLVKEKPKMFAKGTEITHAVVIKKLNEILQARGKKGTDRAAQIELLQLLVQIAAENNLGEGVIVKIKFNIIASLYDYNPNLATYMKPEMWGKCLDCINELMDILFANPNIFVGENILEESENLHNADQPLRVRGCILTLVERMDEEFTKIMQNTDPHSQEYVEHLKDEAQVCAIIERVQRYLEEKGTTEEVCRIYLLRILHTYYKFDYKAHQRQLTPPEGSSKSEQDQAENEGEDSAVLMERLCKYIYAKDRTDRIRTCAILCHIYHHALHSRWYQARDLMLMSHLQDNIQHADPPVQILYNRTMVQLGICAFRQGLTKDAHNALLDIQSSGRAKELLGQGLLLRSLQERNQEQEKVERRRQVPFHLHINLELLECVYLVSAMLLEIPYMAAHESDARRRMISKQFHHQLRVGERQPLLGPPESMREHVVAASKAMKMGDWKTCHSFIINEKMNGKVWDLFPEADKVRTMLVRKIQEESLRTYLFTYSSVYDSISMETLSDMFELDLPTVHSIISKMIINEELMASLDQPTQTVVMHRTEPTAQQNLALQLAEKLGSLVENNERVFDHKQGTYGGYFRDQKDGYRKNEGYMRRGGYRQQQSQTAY
UniProt Q8N9N8: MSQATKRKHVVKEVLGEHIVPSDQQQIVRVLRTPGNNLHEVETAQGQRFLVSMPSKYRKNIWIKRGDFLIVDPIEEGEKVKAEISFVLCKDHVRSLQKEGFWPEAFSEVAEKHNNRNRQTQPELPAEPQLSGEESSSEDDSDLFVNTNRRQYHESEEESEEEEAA
UniProt P47813, whole entry, looked up: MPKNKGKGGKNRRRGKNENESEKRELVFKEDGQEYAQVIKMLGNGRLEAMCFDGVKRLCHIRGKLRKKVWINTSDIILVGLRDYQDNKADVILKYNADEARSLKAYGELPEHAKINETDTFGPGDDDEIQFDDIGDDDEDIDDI

ELOF1 (UniProt P60002)
log2 fold change: inactive: 0.089

EML4 (UniProt Q9HC35)
log2 fold change: inactive: 0.08

ELL (UniProt P55199)
log2 fold change: inactive: -0.166

EIF3A (UniProt Q14152)
log2 fold change: inactive: 0.037

ELOA (UniProt Q14241)
log2 fold change: inactive: -0.016

EHD1 (UniProt Q9H4M9)
log2 fold change: inactive: -0.021

EML3 (UniProt Q32P44)
log2 fold change: inactive: 0.28

EIF2D (UniProt P41214)
log2 fold change: inactive: 0.087

ENOSF1 (UniProt Q7L5Y1)
log2 fold change: inactive: 0.041

EMC1 (UniProt Q8N766)
log2 fold change: inactive: -0.017

EIF2B4 (UniProt Q9UI10)
log2 fold change: inactive: 0.214

ENOPH1 (UniProt Q9UHY7)
log2 fold change: inactive: 0.094

EMG1 (UniProt Q92979)
log2 fold change: inactive: 0.048

ENDOG (UniProt Q14249)
log2 fold change: inactive: -0.015

EEF1AKMT2 (UniProt Q5JPI9)
log2 fold change: inactive: 0.037

EIF3H (UniProt O15372)
log2 fold change: inactive: 0.019

EIF3I (UniProt Q13347)
log2 fold change: inactive: 0.08

ENO1 isoform 2 (UniProt P06733)
log2 fold change: inactive: -0.067

EIF2S2 (UniProt P20042)
log2 fold change: inactive: 0.006

EIF3D (UniProt O15371)
log2 fold change: inactive: 0.079

EEFSEC (UniProt P57772)
log2 fold change: inactive: 0.062

EIF3K (UniProt Q9UBQ5)
log2 fold change: inactive: -0.036

ENO2 (UniProt P09104)
log2 fold change: inactive: 0.021

ENPP3 (UniProt O14638)
log2 fold change: inactive: 0.087

EI24 (UniProt O14681)
log2 fold change: inactive: -0.065

EIF2AK4 (UniProt Q9P2K8)
log2 fold change: inactive: -0.043

ENO3 (UniProt P13929)
log2 fold change: inactive: -0.054

EIF4A3 (UniProt P38919)
log2 fold change: inactive: 0.089

EMC8 (UniProt O43402)
log2 fold change: inactive: 0.025

EEF1A1P5 (UniProt Q5VTE0)
log2 fold change: inactive: -0.061

EIF3C (UniProt Q99613)
log2 fold change: inactive: 0.032

EIF3E (UniProt P60228)
log2 fold change: inactive: 0.12

ELAVL4 (UniProt P26378)
log2 fold change: inactive: 0.144

EIPR1 (UniProt Q53HC9)
log2 fold change: inactive: -0.055

EIF1AD (UniProt Q8N9N8)
log2 fold change: inactive: 0.02

EIF1AX (UniProt P47813)
log2 fold change: inactive: 0.031
